Oligonucleotides screened, 5′ to 3′:
T1: SAM-II riboswitch RNA pseudoknot, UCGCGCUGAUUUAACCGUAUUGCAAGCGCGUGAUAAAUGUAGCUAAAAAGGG. About 21,000 compounds screened, about 200 hits.
T2: PreQ1 riboswitch RNA pseudoknot, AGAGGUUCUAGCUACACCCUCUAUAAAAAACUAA. From B. subtilis. About 24,000 compounds screened, about 170 hits.
T3: TPP riboswitch RNA three-way junction, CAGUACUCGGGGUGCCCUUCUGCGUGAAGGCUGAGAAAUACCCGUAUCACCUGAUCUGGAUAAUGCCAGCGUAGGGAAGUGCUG. About 24,000 compounds screened, about 160 hits.

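Each compound is printed as two spots on a slide made to bind it covalently, so it has no test concentration; the read-out is fluorescence of the bound, labelled oligonucleotide. The data file lists only calls. An earlier report of the laboratory on the PreQ1, TPP and SAM-II riboswitches (doi:10.1038/s41467-019-09493-3) used 1 µM RNA for 2 h and required a mean Z-score above 3 (spot signal-to-noise against the whole library), a score well above that on a control array, and duplicate spots agreeing (coefficient of variation under 100); it then also set aside compounds that hit other targets, which this list keeps. The cut-offs behind this list may differ. These are primary screening calls, not affinities; a compound without a hit may have attached poorly or may still bind in solution.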
“active” means called a hit, “inactive” means screened and not called a hit.
Compounds were drawn at random from those tested, without regard to their results.
A target missing from an entry has no call listed here.
A dash means that no call is listed here.

With Cc1[nH]c2ccccc2c1CCNc1ncnc2c1oc1ccccc12 the screen gave T1: inactive; T2: inactive; T3: inactive. Calls for Cc1cc(NC(=O)Nc2ccc(N(C)C)cc2)c2cc(F)cc(F)c2n1 are T1: inactive; T2: inactive; T3: inactive. Calls for CC(C)OC(=O)C(C(=O)OC(C)C)=C1SC=CS1 are T1: inactive; T2: inactive; T3: inactive. Calls for COc1cccc(OCc2cc(C(=O)N3[C@H]4CCNC[C@@H]3CC4)n[nH]2)c1 are T1: inactive; T2: inactive; T3: inactive. CCc1ccc(NC(=O)CN(C)S(=O)(=O)c2cc(Br)cnc2N)cc1 was scored T2: inactive; T3: inactive. For O=C(O)CNc1cccc(C(=O)NCc2cn3c(n2)SCC3)c1 the calls were T1: inactive; T2: inactive; T3: inactive.

With Cc1nc2[nH]c(=O)n(O)c(=O)c2s1 the screen gave T1: inactive; T2: inactive; T3: inactive. With CCc1ccc(OCC(O)Cn2c(COC)nc3ccccc32)cc1 (stereo not shown) the screen gave T2: inactive; T3: inactive. Cc1ccc(-c2nc3ncccn3c2Nc2ccccc2)cc1 was scored T1: inactive; T2: inactive; T3: inactive. For CCCC12CN3CC(CCC)(CN(C1)C3c1cccc(N)c1)C2=O (stereo not shown) the calls were T2: inactive; T3: inactive. Cc1ccc(-c2nn3c(NCCN4CCOCC4)cc(C)nc3c2C)cc1 was scored T2: inactive; T3: inactive. Calls for NC(=O)c1ccnc(N2CCC3(CCCNC3)C2)c1 (stereo not shown) are T1: inactive; T2: inactive; T3: inactive.

For CCn1cnnc1CCNc1nccc(N2CCN[C@H]3CS(=O)(=O)C[C@H]32)n1 the calls were T1: inactive; T2: inactive; T3: inactive. Calls for CC(C)NC(=O)[C@@H]1C[C@@H](N)CN1Cc1cnc(-c2ccccn2)nc1 are T1: inactive; T2: inactive; T3: inactive. CCn1c(N)nc2cc(C(=O)NCc3snnc3C(C)C)cnc21 was scored T1: inactive; T2: inactive; T3: inactive. With COCCN(C(=O)Nc1cccc(CN)c1)C1CCN(C)CC1 the screen gave T1: inactive; T2: inactive; T3: inactive. Calls for O=C(CN1C(=O)c2ccccc2C1=O)Nc1ccccc1C(=O)NCCO are T1: inactive; T2: inactive; T3: inactive. With COC1(CS(=O)c2ccccc2)CCN(CCc2c[nH]c3ccc(F)cc23)CC1 (stereo not shown) the screen gave T1: inactive; T2: inactive; T3: inactive.

For CC(O)c1nc2cc(-c3ccc(S(=O)(=O)N4CCSCC4)cc3)ccc2[nH]1 (stereo not shown) the calls were T1: inactive; T2: inactive; T3: inactive. CC(NCC(O)COc1ccc2c(c1)OCO2)c1ccccc1.Cl (stereo not shown) was scored T1: inactive; T2: inactive; T3: inactive. Cc1ccc(-c2noc(-c3cccnc3NC3CCCC3)n2)cc1 was scored T2: inactive; T3: inactive. With Cc1ncc2c(c1CNC(=O)C1(C)CCCCO1)CCNC2 (stereo not shown) the screen gave T1: inactive; T2: inactive; T3: inactive. For CC1(C)CC(=O)C2=C(C1)OC(N)=C(C#N)C21C(=O)N(CO)c2ccccc21 (stereo not shown) the calls were T1: inactive; T2: inactive; T3: inactive. With NCCO[C@H]1C[C@@H](O)C12CCN(C(=O)Cn1cnnn1)CC2 the screen gave T1: inactive; T2: inactive; T3: inactive.

For CCOc1ccc(NC2c3ccccc3C(=O)N2c2ccccn2)cc1 (stereo not shown) the calls were T1: inactive; T2: inactive; T3: inactive. For CC1C(=O)CCN(CCO)C1C (stereo not shown) the calls were T1: inactive; T2: inactive; T3: inactive. With COc1cccc(NC(CNS(=O)(=O)c2ccc(Cl)cc2)c2ccccc2)c1 (stereo not shown) the screen gave T2: inactive; T3: inactive. Calls for Cc1csc(-c2cc(-c3cnc(NC(C)C)nc3)c(C#N)c(N)n2)c1 are T1: inactive; T2: inactive; T3: inactive. CCN(CC)C(=O)[C@@H]1C[C@@H](NC(=O)c2ccc(CO)o2)CN1C1CCCC1 was scored T1: inactive; T2: inactive; T3: inactive. O=C(O)c1cccc(NC(CNS(=O)(=O)c2ccc(Cl)cc2)c2ccccc2)c1 (stereo not shown) was scored T2: inactive; T3: inactive.

Calls for O=C(c1cc2c(s1)CCCC2)N1CCN(Cc2ccoc2)C(CCO)C1 (stereo not shown) are T1: inactive; T2: inactive; T3: inactive. Calls for COCCNc1oc(C=Cc2cc(OC)c(OC)c(OC)c2)nc1C#N are T2: inactive; T3: inactive. CN(CCO)C[C@@H]1CN(C(=O)Cn2nc3ccccc3n2)C[C@@H]1CO was scored T1: inactive; T2: inactive; T3: inactive. With COc1ccc([C@@H](C)n2c(CCN)n[nH]c2=O)cc1 the screen gave T1: inactive; T2: inactive; T3: inactive. COc1ccc(-c2cc(C(F)(F)F)nc(NCc3ccccc3)n2)cc1OC was scored T1: inactive; T2: inactive; T3: inactive. With Fc1ccccc1Nc1ncnc2c1nc1n2CCCC1 the screen gave T2: inactive; T3: inactive.

For reference, 4 entries once more:

Compound	T1	T2	T3
COCCNc1oc(C=Cc2cc(OC)c(OC)c(OC)c2)nc1C#N	-	inactive	inactive
COc1ccc(-c2cc(C(F)(F)F)nc(NCc3ccccc3)n2)cc1OC	inactive	inactive	inactive
NC(=O)c1ccnc(N2CCC3(CCCNC3)C2)c1 (stereo not shown)	inactive	inactive	inactive
Cc1ccc(-c2noc(-c3cccnc3NC3CCCC3)n2)cc1	-	inactive	inactive

Source: the ROBIN nucleic acid binder screens (doi:10.1002/anie.202211358).